Laboratory results reported in publication PMC11005723, “Development of Complementary Photo‐arginine/lysine to Promote Discovery of Arg/Lys hPTMs Interactomes” (Advanced Science, 2024).
The source gives many values for each of these; only a part stands here.

System: HEK293T nuclear lysates
Test: SILAC‐based pull‐down proteomics H4K5me2/H4K5 (probes 7/5)
Type: binding, human
Conditions: for F6 log2 (H4K5me2/H4K5): run F6; for E6 log2 (H4K5me2/H4K5): run E6
[1] = enriched protein NCBP1 (Q09161)
[2] = enriched protein NOP14 (P78316)
[3] = enriched protein NR2F2 (P24468)
[4] = enriched protein NUP155 (E9PF10)
[5] = enriched protein PAICS (E9PBS1)
[6] = enriched protein PARP1 (P09874)
[7] = enriched protein PPP1CA (P62136)
[8] = enriched protein PPP1CB (P62140)
[9] = enriched protein PPP2R1A (P30153)
[10] = enriched protein PRPF3 (O43395)
[11] = enriched protein PRPF19 (Q9UMS4)
[12] = enriched protein PSAT1 (Q9Y617)
[13] = enriched protein PSMG1 (O95456)
[14] = enriched protein PTCD3 (Q96EY7)
[15] = enriched protein RPL22 (K7EJT5)
[16] = enriched protein RUVBL2 (Q9Y230)
[17] = enriched protein SAMD1 (Q6SPF0)
[18] = enriched protein SEC13 (A8MXL6)
[19] = enriched protein SENP3 (Q9H4L4)
[20] = enriched protein SEPT7 (E7ES33)
[21] = enriched protein SHMT2 (H0YIZ0)
[22] = enriched protein SKIV2L2 (P42285)
[23] = enriched protein SMAD4 (K7EIU8)
[24] = enriched protein SMARCB1 (Q12824)
[25] = enriched protein SMCHD1 (A6NHR9)
[26] = enriched protein SNRPC (P09234)
[27] = enriched protein SNRPD3 (P62318)
[28] = enriched protein SNRPN (J3QLE5)
[29] = enriched protein SRSF5 (Q13243)
[30] = enriched protein THOC2 (A0A0C4DG98)
[31] = enriched protein THOC3 (Q96J01)
[32] = enriched protein THOC5 (Q13769)
[33] = enriched protein THOC6 (Q86W42)
[34] = enriched protein U2AF1 (Q01081)
[35] = enriched protein UBE2M (P61081)
[36] = enriched protein UQCRC1 (P31930)
[37] = enriched protein VDAC2 (A0A0A0MR02)
[38] = protein A0A0B4J2E5 LOC102724159
[39] = protein A0A1W2PQ90 Uncharacterized protein

## probe 7: H4K5me2 peptide probe with photo‐arginine R(dz) and K(biotin) (SGRGKGGKGLGKGGK; photo-arginine R(dz) at 3; dimethyl-lysine at 5; K(biotin) at 15)
Enriched protein MIF (P14174)
  F6 log2 (H4K5me2/H4K5): 0.3402
[1]
  E6 log2 (H4K5me2/H4K5): 0.4502
  F6 log2 (H4K5me2/H4K5): 0.2006
[2]
  E6 log2 (H4K5me2/H4K5): 0.5649
  F6 log2 (H4K5me2/H4K5): 1.527
[3]
  E6 log2 (H4K5me2/H4K5): 0.7904
  F6 log2 (H4K5me2/H4K5): 0.8722
Enriched protein NSD1 (Q96L73)
  E6 log2 (H4K5me2/H4K5): 0.9421
  F6 log2 (H4K5me2/H4K5): -0.6852
[4]
  E6 log2 (H4K5me2/H4K5): 0.7525
  F6 log2 (H4K5me2/H4K5): -1.3641
[5]
  E6 log2 (H4K5me2/H4K5): 0.5659
  F6 log2 (H4K5me2/H4K5): 0.4981
[6]
  E6 log2 (H4K5me2/H4K5): 0.5123
  F6 log2 (H4K5me2/H4K5): 0.4365
Enriched protein PCNA (P12004)
  E6 log2 (H4K5me2/H4K5): 0.5188
  F6 log2 (H4K5me2/H4K5): 0.4082
Enriched protein PGK1 (P00558)
  E6 log2 (H4K5me2/H4K5): 0.7906
  F6 log2 (H4K5me2/H4K5): 0.7824
Enriched protein PHF6 (Q8IWS0)
  E6 log2 (H4K5me2/H4K5): 0.5067
  F6 log2 (H4K5me2/H4K5): 0.2654
Enriched protein PPIA (P62937)
  E6 log2 (H4K5me2/H4K5): 0.6611
  F6 log2 (H4K5me2/H4K5): 0.6884
[7]
  E6 log2 (H4K5me2/H4K5): 0.6972
  F6 log2 (H4K5me2/H4K5): 0.645
[8]
  E6 log2 (H4K5me2/H4K5): 0.404
  F6 log2 (H4K5me2/H4K5): -0.01575
[9]
  E6 log2 (H4K5me2/H4K5): 0.5245
  F6 log2 (H4K5me2/H4K5): 0.2878
[10]
  E6 log2 (H4K5me2/H4K5): 1.254
  F6 log2 (H4K5me2/H4K5): 0.5022
[11]
  E6 log2 (H4K5me2/H4K5): 0.4929
  F6 log2 (H4K5me2/H4K5): 0.5079
[12]
  E6 log2 (H4K5me2/H4K5): 1.232
  F6 log2 (H4K5me2/H4K5): 0.9134
[13]
  E6 log2 (H4K5me2/H4K5): 0.7836
  F6 log2 (H4K5me2/H4K5): 0.7673
[14]
  E6 log2 (H4K5me2/H4K5): 1.143
  F6 log2 (H4K5me2/H4K5): 0.4051
Enriched protein RAN (P62826)
  E6 log2 (H4K5me2/H4K5): 0.4096
  F6 log2 (H4K5me2/H4K5): 0.4478
Enriched protein RCC1 (P18754)
  E6 log2 (H4K5me2/H4K5): 0.5999
  F6 log2 (H4K5me2/H4K5): 0.6391
Enriched protein RFC3 (P40938)
  E6 log2 (H4K5me2/H4K5): 0.7179
  F6 log2 (H4K5me2/H4K5): 1.486
Enriched protein RNF2 (Q99496)
  E6 log2 (H4K5me2/H4K5): 0.4291
  F6 log2 (H4K5me2/H4K5): 0.2686
[15]
  E6 log2 (H4K5me2/H4K5): 0.5817
  F6 log2 (H4K5me2/H4K5): 0.3313
[16]
  E6 log2 (H4K5me2/H4K5): 0.5474
  F6 log2 (H4K5me2/H4K5): 0.5126
[17]
  E6 log2 (H4K5me2/H4K5): 0.4814
  F6 log2 (H4K5me2/H4K5): 0.1855
[18]
  E6 log2 (H4K5me2/H4K5): 1.006
  F6 log2 (H4K5me2/H4K5): 1.562
[19]
  E6 log2 (H4K5me2/H4K5): 0.52
  F6 log2 (H4K5me2/H4K5): 0.2653
[20]
  E6 log2 (H4K5me2/H4K5): 0.6428
  F6 log2 (H4K5me2/H4K5): 0.562
[21]
  E6 log2 (H4K5me2/H4K5): 0.4508
  F6 log2 (H4K5me2/H4K5): 0.4286
[22]
  E6 log2 (H4K5me2/H4K5): 0.502
  F6 log2 (H4K5me2/H4K5): 0.1755
Enriched protein SKP1 (E5RJR5)
  E6 log2 (H4K5me2/H4K5): 0.7524
  F6 log2 (H4K5me2/H4K5): 0.6351
[23]
  E6 log2 (H4K5me2/H4K5): 0.657
  F6 log2 (H4K5me2/H4K5): 0.5993
[24]
  E6 log2 (H4K5me2/H4K5): 0.4652
  F6 log2 (H4K5me2/H4K5): 0.3353
[25]
  E6 log2 (H4K5me2/H4K5): 0.5636
  F6 log2 (H4K5me2/H4K5): -0.3447
Enriched protein SMU1 (Q2TAY7)
  E6 log2 (H4K5me2/H4K5): 0.5512
  F6 log2 (H4K5me2/H4K5): 0.7298
[26]
  E6 log2 (H4K5me2/H4K5): 0.7348
  F6 log2 (H4K5me2/H4K5): 0.8143
[27]
  E6 log2 (H4K5me2/H4K5): 0.8387
  F6 log2 (H4K5me2/H4K5): 0.9268
[28]
  E6 log2 (H4K5me2/H4K5): 0.8612
  F6 log2 (H4K5me2/H4K5): 0.7692
[29]
  E6 log2 (H4K5me2/H4K5): 0.4132
  F6 log2 (H4K5me2/H4K5): -0.05398
Enriched protein ST13 (H7C3I1)
  E6 log2 (H4K5me2/H4K5): 0.4848
  F6 log2 (H4K5me2/H4K5): 0.1307
Enriched protein TARS (P26639)
  E6 log2 (H4K5me2/H4K5): 0.4285
  F6 log2 (H4K5me2/H4K5): 0.5358
[30]
  E6 log2 (H4K5me2/H4K5): 0.5009
  F6 log2 (H4K5me2/H4K5): 0.2124
[31]
  E6 log2 (H4K5me2/H4K5): 0.4067
  F6 log2 (H4K5me2/H4K5): 0.03014
[32]
  E6 log2 (H4K5me2/H4K5): 0.4347
  F6 log2 (H4K5me2/H4K5): 0.1777
[33]
  E6 log2 (H4K5me2/H4K5): 0.4714
  F6 log2 (H4K5me2/H4K5): 0.5437
Enriched protein TKT (P29401)
  E6 log2 (H4K5me2/H4K5): 0.419
  F6 log2 (H4K5me2/H4K5): 0.3626
[34]
  E6 log2 (H4K5me2/H4K5): 0.4021
  F6 log2 (H4K5me2/H4K5): 0.4159
[35]
  E6 log2 (H4K5me2/H4K5): 0.7119
  F6 log2 (H4K5me2/H4K5): 0.504
[36]
  E6 log2 (H4K5me2/H4K5): 0.9405
  F6 log2 (H4K5me2/H4K5): 0.8645
[37]
  E6 log2 (H4K5me2/H4K5): 0.5488
  F6 log2 (H4K5me2/H4K5): 0.2845
Enriched protein VRK1 (Q99986)
  E6 log2 (H4K5me2/H4K5): 0.5647
  F6 log2 (H4K5me2/H4K5): 0.572
Protein A0A0B4J1Z1 SRSF7
  E6 log2 (H4K5me2/H4K5): 0.1976
  F6 log2 (H4K5me2/H4K5): -0.0234
[38]
  E6 log2 (H4K5me2/H4K5): 0.3043
  F6 log2 (H4K5me2/H4K5): 0.2673
[39]
  E6 log2 (H4K5me2/H4K5): 0.3481
  F6 log2 (H4K5me2/H4K5): 0.4787
